These are yes or no findings as the source states them, for the method shown. Some binding calls cover weakened binding; strength is not graded here. One block for each binder: values may come before it.
Key:
[1] = biological target: cynomolgus monkey CD47 on cynomolgus B-cells (cynomolgus monkey); test: flow cytometry on cynomolgus B-cells (FIG. 5)
[2] = biological target: cynomolgus monkey CD47 on cynomolgus B-cells (cynomolgus monkey); test: flow cytometry on cynomolgus B-cells (CD20-gated PBMC), signal normalised to the maximum of the antibody on that cell population
[3] = biological target: cynomolgus monkey CD47 on cynomolgus B-cells (cynomolgus monkey); test: flow cytometry on cynomolgus B-cells
[4] = biological target: recombinant human CD47 (immobilized, hybridoma screen) (human) (UniProt Q08722); test: blocking ELISA: hybridoma supernatant with SIRPa-ECD-Fc on immobilised recombinant CD47

The chains behind the UniProt entries cited, without tags or fusion partners. Where a name states a change or a piece, a line headed by the entry shows the natural chain unless it says otherwise.
UniProt Q08722: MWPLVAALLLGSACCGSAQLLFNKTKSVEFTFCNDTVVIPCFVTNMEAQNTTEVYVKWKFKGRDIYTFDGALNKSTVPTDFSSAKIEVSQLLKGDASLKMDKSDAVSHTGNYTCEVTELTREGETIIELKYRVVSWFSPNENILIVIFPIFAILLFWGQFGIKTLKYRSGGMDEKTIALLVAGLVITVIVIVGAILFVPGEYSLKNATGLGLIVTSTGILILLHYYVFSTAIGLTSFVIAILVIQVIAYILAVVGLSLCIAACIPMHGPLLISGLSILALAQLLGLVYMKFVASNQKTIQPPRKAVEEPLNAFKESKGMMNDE

binding [1]: binds | binding [2]: binds | binding [3]: binds
B1: murine CD47 antibody 2A1 (antibody, mouse IgG1, V domains shown)
VH: EVQLQQSGAELVRSGASVKLSCTASGFNIKDYYLHWVKQRPEQGLEWIGWIDPDNGDTEFAPKFQGKATMTADTSSNTAYLQLSSLTSEDTAVYYCNAAYGSSSYPMDYWGQGTSVTV
VL: DIKMTQSPSSLYASLGERVTITCKASQDIHRYLSWFQQKPGKSPKILIYRANRLVDGVPSRFSGSGSGQDYSLTISSLEYEDMGIYYCLQYDEFPYTFGGGTKLEMK
notes: Hybridoma-derived mouse IgG1; also called 2A1-mIgG1; 2A1mIgG1

binding [4]: binds
B2: murine 9E4 antibody (antibody, mouse IgG1, V domains shown)
VH: EVQLRQSGPELVKPGASVKISCKASGYSFTDYYMYWVKQSRVRSLAWIGRINPYTGATGYDQNFKDKASLIVDKSSSTAYMELRSLTSEDSAVYYCARGRNRYDGWFAYWGQGTLVTV
VL: EIQMTQTTSSLSASLGDRVTISCRASQDISNYLNWYQQKPDGTVKLLIYYTSRLHSGVPSRFSGSGSGTDYSLTISNLDQEDIATYFCQQGNALPPTFGGGTNLEIK

Reference: US20160251435A1 (INHIBRX, published 2016)
